Experimental data taken from publication PMC12804905.
Results are given in words; binding and its absence hold for the method and conditions named. Binding seen in cells or lysates may run through a third protein. Sequences can lack the tags named with a protein.

T1: HIF-1(P621G)::3xFLAG (C. elegans) (UniProt G5EGD2)
T1 sequence: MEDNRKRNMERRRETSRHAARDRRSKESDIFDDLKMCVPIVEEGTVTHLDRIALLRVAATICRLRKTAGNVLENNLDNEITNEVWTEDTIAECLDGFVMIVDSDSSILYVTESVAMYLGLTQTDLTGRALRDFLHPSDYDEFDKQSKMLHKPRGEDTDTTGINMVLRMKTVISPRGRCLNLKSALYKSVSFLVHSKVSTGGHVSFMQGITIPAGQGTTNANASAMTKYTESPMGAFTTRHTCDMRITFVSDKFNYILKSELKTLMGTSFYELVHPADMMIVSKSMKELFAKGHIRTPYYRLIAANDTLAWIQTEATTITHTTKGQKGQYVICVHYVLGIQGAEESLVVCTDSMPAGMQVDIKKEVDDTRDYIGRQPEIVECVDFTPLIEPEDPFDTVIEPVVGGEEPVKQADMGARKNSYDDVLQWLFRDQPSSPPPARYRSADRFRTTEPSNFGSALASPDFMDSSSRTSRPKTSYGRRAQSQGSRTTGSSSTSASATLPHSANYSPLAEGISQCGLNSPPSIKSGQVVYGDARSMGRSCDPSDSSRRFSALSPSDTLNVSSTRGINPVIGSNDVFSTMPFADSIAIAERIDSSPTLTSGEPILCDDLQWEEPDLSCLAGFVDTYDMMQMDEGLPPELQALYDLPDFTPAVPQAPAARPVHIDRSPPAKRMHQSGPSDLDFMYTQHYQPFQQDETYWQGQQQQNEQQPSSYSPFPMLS

T2: ATFS-1::2xMYC (C. elegans) (UniProt Q23272)
T2 sequence: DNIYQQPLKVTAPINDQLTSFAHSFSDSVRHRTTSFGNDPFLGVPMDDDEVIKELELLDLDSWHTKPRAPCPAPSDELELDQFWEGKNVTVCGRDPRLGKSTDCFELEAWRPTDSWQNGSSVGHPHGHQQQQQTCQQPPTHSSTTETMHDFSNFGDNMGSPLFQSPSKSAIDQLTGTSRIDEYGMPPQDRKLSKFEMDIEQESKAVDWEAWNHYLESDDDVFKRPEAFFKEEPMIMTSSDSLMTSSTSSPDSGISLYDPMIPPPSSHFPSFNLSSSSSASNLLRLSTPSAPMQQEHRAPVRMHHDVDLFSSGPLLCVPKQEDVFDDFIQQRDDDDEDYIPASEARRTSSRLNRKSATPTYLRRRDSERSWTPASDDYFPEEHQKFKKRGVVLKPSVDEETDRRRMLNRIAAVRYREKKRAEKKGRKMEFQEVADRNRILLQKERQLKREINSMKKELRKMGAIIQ

B1: ATFS-1::2xMYC (protein, UniProt Q23272-1 24-488)
chain: T2 sequence
B2: DAF-16::HA (protein, UniProt O16850-8 1-541)
chain: MQLEQKSSLHCSKCRNFLQKFSQDMQAWNCRELDSPLPSDITLHNLEPARPDSGMSFSTDFDDDFFNLDLHQQERSASFGGVTQYSQQFLREKCSFSPYFHTSLETVDSGRTSLYGSNEQCGQLGGASSNGSTAMLHTPDGSNSHQTSFPSDFRMSESPDDTVSGKKTTTRRNAWGNMSYAELITTAIMASPEKRLTLAQVYEWMVQNVPYFRDKGDSNSSAGWKNSIRHNLSLHSRFMRIQNEGAGKSSWWVINPDAKPGRNPRRTRERSNTIETTTKAQLEKSRRGAKKRIKERALMGSLHSTLNGNSIAGSIQTISHDLYDDDSMQGAFDNVPSSFRPRTQSNLSIPGSSSRVSPAIGSDIYDDLEFPSWVGESVPAIPSDIVDRTDQMRIDATTHIGGVQIKQESKPIKTEPIAPPPSYHELNSVRGSCAQNPLLRNPIVPSTNFKPMPLPGAYGNYQNGGITPINWLSTSNSSPLPGIQSCGIVAAQHTVASSSALPIDLENLTLPDQPLMDTMDVDALIRHELSQAGGQHIHFDL

What was measured:
[1] = biological target: T1, HIF-1(P621G)::3xFLAG (C. elegans); test: co-IP; HEK293T cells co-expressing the three proteins from pSZ336; lysate immunoprecipitated overnight at 4 °C with anti-MYC, anti-FLAG or anti-HA magnetic beads; washes with PBS, RIPA with 300 mM NaCl and RIPA with 1 M NaCl; western blot for the individual protein tags
[2] = biological target: T2, ATFS-1::2xMYC (C. elegans); test: as above

| binding [1] | binding [2] | Binder |
| --- | --- | --- |
| no binding | – | B1 |
| no binding | no binding | B2 |
